Data published in PubChem BioAssay AID2551 (National Center for Advancing Translational Sciences (NCATS), 2010).
The whole screen tested about 310,000 compounds, of which about 17,000 (5.5%) were called active. The shares of active, inactive and inconclusive entries below differ from those in the screen. Calls come from the whole dose curve; as a rule, active = well fitted inhibition curve with a large enough effect; inconclusive = small, poorly fitted or top-dose-only effect, or effect the other way; inactive = no such curve, though single readings can be large or run the other way. Where the call is inconclusive, the potency comes from a doubtful curve fit.

Protein sequences, listed by entry. Tags and fused reporters are not part of them. Lines headed by an entry give the natural chain unless they say otherwise; changes in a name come on top.
UniProt P51450: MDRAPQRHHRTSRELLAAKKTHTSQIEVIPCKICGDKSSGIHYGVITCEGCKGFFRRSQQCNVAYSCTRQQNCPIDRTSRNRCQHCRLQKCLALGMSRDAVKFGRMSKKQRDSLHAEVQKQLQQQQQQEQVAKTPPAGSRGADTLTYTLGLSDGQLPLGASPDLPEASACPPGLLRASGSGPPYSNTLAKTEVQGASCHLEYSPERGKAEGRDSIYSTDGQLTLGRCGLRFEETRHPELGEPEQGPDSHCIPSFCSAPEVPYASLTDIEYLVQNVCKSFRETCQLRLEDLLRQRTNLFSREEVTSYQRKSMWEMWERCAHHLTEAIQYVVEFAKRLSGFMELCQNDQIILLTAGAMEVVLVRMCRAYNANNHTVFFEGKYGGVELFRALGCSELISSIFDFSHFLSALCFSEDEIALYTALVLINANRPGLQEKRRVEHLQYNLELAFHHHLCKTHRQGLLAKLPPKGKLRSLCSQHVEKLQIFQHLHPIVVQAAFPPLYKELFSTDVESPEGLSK

molecular target: Nuclear receptor ROR-gamma (Mus musculus) (UniProt P51450); assay: qHTS for inhibitors of ROR gamma transcriptional activity; settings: Drosophila S2 Gal4-RORgamma UAS-luciferase reporter, 20 h; series mostly up to 53.6 µM; note: nearly all actives have a fitted effect of over 60% in size
How it was run: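 Stably transfected Drosophila Schneider cells are the test system, with ROR gamma fused to Gal4 and luciferase under UAS control; luminescence is read after 20 hr of 700 uM copper sulfate induction at ambient temperature.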
Potency is the fitted concentration of half-maximal effect.

Potency, inactive:
COc1ccc(C2=NOC(C(=O)NCc3ccccn3)C2)cc1OC (stereo unspecified)
O=S(=O)(NC1c2cccc3cccc(c23)C1N1CCN(CCO)CC1)c1ccccc1 (stereo unspecified)
NCCCC[C@H](NC(=O)[C@H](CS)NC(=O)[C@@H](N)Cc1cnc[nH]1)C(=O)N[C@@H](Cc1ccccc1)C(=O)N[C@@H](Cc1c[nH]c2ccccc12)C(=O)N[C@@H](Cc1c[nH]c2ccccc12)C(=O)O
CC(=O)N1CCC[C@@]2(CCN(Cc3cc(C(F)(F)F)cc(C(F)(F)F)c3)C2)C1
Cc1ccccc1NC(=O)Nc1nnc(CC(=O)NCc2ccccc2)s1
Cc1ccc(C)c(N2CCN(CCCNC(=O)Cn3c(=O)c4cccn4c4cccnc43)CC2)c1
CCOC(=O)CSc1n[nH]c(NC(C)=O)n1
COC(=O)c1ccc(OC(=O)C2CC(=O)N(c3cccc(C)c3)C2)cc1 (stereo unspecified)
CC1c2[nH]c3ccccc3c2CCN1C(=O)Nc1ccccc1 (stereo unspecified)
O=C(NCc1ccccc1)c1ccc(CN(c2ccccn2)S(=O)(=O)c2ccccc2)cc1
Cc1ccc(C)c(NC(=O)CSc2nnc3n2CCCCC3)c1
CCCCc1ccc(/C=C2/C(=O)ON=C2c2ccccc2)s1

Potency, active:
COC(=O)c1ccc(-c2noc(CN(C)CCC3CCCCO3)n2)cc1 (stereo unspecified) 5.62 µM
Cc1ccc(/C=C/C(=O)Nc2nc3ccccc3[nH]2)cc1 5.62 µM
COc1cccc(/C=C2/SC(=S)N(CC(=O)NNC(=O)c3ccccc3OC)C2=O)c1 10 µM
Cc1cc(N2CCN(c3ccc([N+](=O)[O-])c4cccnc34)CC2)c2ccccc2n1 12.6 µM
CCOc1cc(/C=N/n2c(COc3ccccc3)n[nH]c2=S)ccc1O 5.01 µM
Cc1onc(-c2ccccc2)c1C(=O)N/N=C/c1cc(Br)c(Br)o1 7.08 µM
Cc1ccc(C2=NN3C(C2)c2ccccc2OC32C(=O)Nc3ccccc32)cc1 (stereo unspecified) 12.6 µM
COc1ccc(C(=O)Nn2c(SCC(=O)c3ccc(Cl)cc3)nc3ccccc3c2=O)cc1 11.2 µM
CCOC(=O)c1ccc(NC(=O)c2nc[nH]c2C(=O)NC)cc1 10 µM

Potency, inconclusive:
Nn1cnnc1N/N=C/c1ccc(Cl)c([N+](=O)[O-])c1 25.1 µM [inhibitor, single point]
Cc1ccc(S(=O)(=O)NCCSc2nnnn2-c2cc(C)ccc2C)cc1 12.6 µM [activator, single point]
CCCCn1c(O)c(N=NC(=O)c2ccncc2)c2cc(Br)ccc21 7.08 µM [inhibitor, partial curve]
COCC(=O)NNC(=S)Nc1cccc(C)c1C 17.8 µM [inhibitor, partial curve, poor fit]
Cn1c(=O)c2c(ncn2CCOC(=O)C(C)(C)Oc2ccc(Cl)cc2)n(C)c1=O 35.5 µM [activator, single point]
CC(C)(C)C1(O)CC(C(F)(F)F)=NN1C(=O)Cc1ccc([N+](=O)[O-])cc1 (stereo unspecified) 10 µM [activator, partial curve]
Cc1cc(C)c(C)c(OCCn2ccnc2)c1 14.1 µM [inhibitor, single point]
CCCOc1ccc(-c2nnn(CC(=O)N3CCC(C)CC3)n2)cc1 14.1 µM [activator, single point]
Cc1ccc(C(=O)COC(=O)c2ccc3c(c2)C(=O)N(c2cccc4ncccc24)C3=O)cc1C 35.5 µM [inhibitor, single point]
COc1ccccc1C(=O)N(C)c1nnc(-c2ccccc2)s1 3.98 µM [activator, single point]
CCOc1ccc(N(CC(=O)NN=C2CCN(C)CC2)S(C)(=O)=O)cc1 25.1 µM [inhibitor, single point]
COc1ccc(/C=N/NC(=O)c2cccc([N+](=O)[O-])c2)c2ccccc12 25.1 µM [inhibitor, single point]
COc1ccc(NC(=O)CSc2nc3c(c(=O)n2-c2ccc(C)cc2)SCC3)c(OC)c1 7.08 µM [activator, partial curve]
CC1CCCCC1NC(=O)c1ccncc1 (stereo unspecified) 0.891 µM [activator, full curve, poor fit]
Cc1ccc(NC(=S)N(C)C)cc1C 11.2 µM [inhibitor, single point]
Cc1noc(C)c1-c1nccc(Nc2ccc(F)cc2)n1 14.1 µM [activator, partial curve]
CCOc1cccc(=O)c2c(C)n(-c3ccc(C(=O)O)cc3)c(C)c12 7.94 µM [inhibitor, partial curve]
COc1ccc(N2C(N)=C(C#N)C(c3ccsc3)C3=C2CCCC3=O)c(OC)c1 (stereo unspecified) 10 µM [inhibitor, partial curve, poor fit]
C/C(=N/NS(=O)(=O)c1cccc([N+](=O)[O-])c1)c1ccncc1 15.8 µM [inhibitor, single point]
Cc1ccsc1C(=O)NN=C1CCCCCC1 25.1 µM [inhibitor, single point]
COCCOc1nc2c(c(=O)n(C)c(=O)n2C)n1CCc1ccccc1 31.6 µM [activator, single point]
CCOC(=O)c1sc(NC(=O)CCN2CCN(C)CC2)c(C(=O)OCC)c1C 35.5 µM [inhibitor, single point]
FC(F)(F)c1cccc(NC(=S)Nc2ccc(Cl)c(Cl)c2)c1 14.1 µM [inhibitor, single point]
CCc1nc2nc(C)cc(Nc3cccc(C(F)(F)F)c3)n2n1 35.5 µM [inhibitor, single point]
O=C(Nc1cccc(Cl)c1)NC1CC2CCC1C2 (stereo unspecified) 11.2 µM [activator, partial curve]

For convenience, part of the list above:
Potency, inconclusive:
COc1ccc(/C=N/NC(=O)c2cccc([N+](=O)[O-])c2)c2ccccc12 25.1 µM [inhibitor, single point]
COc1ccc(NC(=O)CSc2nc3c(c(=O)n2-c2ccc(C)cc2)SCC3)c(OC)c1 7.08 µM [activator, partial curve]
CC1CCCCC1NC(=O)c1ccncc1 (stereo unspecified) 0.891 µM [activator, full curve, poor fit]
Cc1ccc(NC(=S)N(C)C)cc1C 11.2 µM [inhibitor, single point]
Cc1noc(C)c1-c1nccc(Nc2ccc(F)cc2)n1 14.1 µM [activator, partial curve]
CCOc1cccc(=O)c2c(C)n(-c3ccc(C(=O)O)cc3)c(C)c12 7.94 µM [inhibitor, partial curve]
COc1ccc(N2C(N)=C(C#N)C(c3ccsc3)C3=C2CCCC3=O)c(OC)c1 (stereo unspecified) 10 µM [inhibitor, partial curve, poor fit]
C/C(=N/NS(=O)(=O)c1cccc([N+](=O)[O-])c1)c1ccncc1 15.8 µM [inhibitor, single point]
Cc1ccsc1C(=O)NN=C1CCCCCC1 25.1 µM [inhibitor, single point]
